About 3,700 (7%) of roughly 53,000 sequences were called active.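 How the source made its calls: active means gene knockdowns whose robust z-score for IL-1 alpha signal is at least 2 or at most -2, so actives lie on both sides; inactive means the rest.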 The list shows a part of the results.
experiment: Components of the Cytosolic LPS Sensing Pathway: Gene Identification via Genome-wide siRNA Screen; settings: RAW264.7 macrophages, IL-1a HTRF, actives lie on both sides, screened at 100 nM (by protocol), cells primed 5 h with Pam3CSK4 first;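 further: robust z of the log signal after scaling to non-targeting control siRNA wells of the plate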
Outline: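 Using IL-1a HTRF as read-out, the screen measured release from RAW264.7 cells after 48h siRNA knockdown (100 nM), 5 h Pam3CSK4 priming and 24 h cytosolic LipidA. Values were expressed relative to negative-control wells as robust z-scores.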

Row | Sequence | z-score
1 | GCCUCUUUGUAAAAAUUCUTT against Atp6v0b | inactive: -1.51
2 | GGGAGGAACAUCACCUCAGTT against Vmn2r123 | inactive: 0.327
3 | GGACAUUGUGACAUCAUGUTT against Diras2 | inactive: -1.12
4 | CGGCCCUAUAGUUUUCUGGTT against Fancb | inactive: 1.08
5 | GCACCGAGACUUGUCAGAGTT against Rab36 | inactive: 1.13
6 | GGCCUUCUGUGUGGUCUAUTT against Kcnk7 | inactive: 0.124
7 | CGAGCUUAAUCAUUGCCUGTT against Eprs | inactive: -1.57
8 | GGCUUUCCUAGGGAUGUCUTT against S100a3 | inactive: -1.76
9 | CCUCUGCAUCUUGGCACCATT against Tmem205 | inactive: -0.0753
10 | GGAAUUCAUCUACAGAGAATT against Dpp6 | inactive: -0.239
11 | GGUGUAGUAGUGAACUUGATT against Trib1 | inactive: 0.285
12 | GGUGUUCUUUGACAGUGCCTT against Atp5d | inactive: 0.107
13 | CGAUGGAUCGCUUCCUACATT against Muc4 | inactive: 1.55
14 | GGAUUUAUGCAUUUCUCCATT against Exosc8 | inactive: -1.77
15 | GCAAUGGUUGAGUUUGAGUTT against Hnrnpll | inactive: -0.711
16 | GCAGUGGUGUAAACCUCAUTT against Pde3b | inactive: -0.794
17 | GGAGGACUAAUGGUGUUCATT against Pcnx4 | inactive: -0.0404
18 | GGUGCAUGCACAAGUGUUUTT against Esrra | inactive: 2
19 | CGGAGAACCAACCUAAGUUTT against Dok1 | inactive: 0.654
20 | GAGUUCAUCCCGUAUCACCTT against Cox6a2 | inactive: -1.29
21 | GCGGCGAUACUUCUACUUGTT against Grk2 | inactive: -0.584
22 | GGCACUUGAACAGAGUAGUTT against Spata17 | inactive: -1.74

Row | Sequence | z-score
23 | GCGCAAUGCAGAACUACGATT against Tac1 | inactive: 0.23
24 | GGAUAUGACAGCUUUCUUUTT against T2 | inactive: -0.814
25 | CCUUCCUAACCAAUGAUGATT against Fam155a | inactive: -1.66
26 | GGAGGUUCAACAUGAAAAUTT against Lingo2 | inactive: -0.253
27 | GGUUCAACAAAACAGGCUUTT against Serpina1f | inactive: -1.01
28 | CGAUGUAACAAAUGAGAUUTT against Gpbp1 | inactive: -0.685
29 | GGCAGAAUGCACAGAACCUTT against Cpz | inactive: -1.38
30 | GCAAAUUUUGUACCAGGCCTT against Hnf1b | inactive: -1.89
31 | GGAUGACCAACAACUAAAGTT against Sytl2 | inactive: -0.353
32 | GGGUAAUGAGCUUGGUGAATT against Zfp53 | inactive: -1.45
33 | GGACCUAAUAUCAUACUCATT against Crtc2 | inactive: -0.649
34 | CGAAGCUAAAGGAUAUAGATT against Fahd1 | inactive: 0.477
35 | GGGUGACCUUUACGUCUUCTT against Reep1 | inactive: 0.0877
36 | GGAUAACCGCCAAUAAAAATT against Msantd3 | inactive: 0.255
37 | GGAAUCAGUUUCAGAGAAUTT against Mtf2 | inactive: -0.557
38 | GGAUAAAGCAUCAGACAAATT against Hmgn1 | inactive: -0.202
39 | GGUACAGGAAAAAAGAAGATT against Msl3 | inactive: -0.784
40 | GCAAUGUGACCAAGACAAUTT against Prelid1 | inactive: 0.739
41 | GGAUGUCUUUGUUCACCAGTT against Ybx2 | inactive: -0.267
42 | GGCUCCUUUGGAGAAGUUUTT against Stk26 | inactive: 0.856
43 | CCAUCAAGAAUGUCCGUGATT against Pkm | inactive: -0.969
44 | GGAAUAUGGAAAGACCUUUTT against Zfp790 | inactive: -0.592

Single entries from the results shown:
Entry of CGAUGUAACAAAUGAGAUUTT against Gpbp1 under z-score: inactive: -0.685
Entry of GGAUGACCAACAACUAAAGTT against Sytl2 under z-score: inactive: -0.353

(further entries)

Row | Sequence | z-score
45 | GGCAGUUCUUAAGUAAUCATT against Fem1al | inactive: 0.924
46 | CGCAGAGUUGAUUGUCCUGTT against Neu2 | inactive: -1.41
47 | GGGCUAAAGUUGAUAAUAATT against Psmc3 | active: -2.02
48 | CGCUGAGCACUUUUCGGAATT against Rbp1 | inactive: 0.935
49 | GGAACACGAAUCAUUUAUGTT against Eif4ebp2 | inactive: 0.351
50 | GGUAAGUGGAGGUAUUCUUTT against Egln1 | active: 2.28
51 | GGCCAUUCAGACGAGUGUUTT against Hivep3 | inactive: -1.44
52 | GGCUGGUACAAAGUUUUAGTT against Mpv17 | active: 2.55
53 | GGCAUUCCAGUAAUUUUGGTT against Lpar4 | inactive: 0.875
54 | CCCGUCUGCAUGCUGAAAATT against Pisd-ps1 | inactive: 0.0779
55 | CCUCAAGACUAUCAGGAGATT against Nrbf2 | inactive: 0.434
56 | GGCAGAGGUUGAAAGACUUTT against Cibar1 | inactive: 0.332
57 | CGGAAACAAACGGACUGAUTT against Agpat4 | inactive: 0.243
58 | GCAGUACAGAUCGCCAUUATT against Tmeff1 | inactive: 0.91
59 | GGCACAGCUGAUGAAACAATT against Ap2m1 | inactive: -0.667
60 | GGCAUGUAAUUUGAUGAUCTT against Mansc1 | inactive: -1.48
61 | GGCCACUUUUCACCACAAATT against Cypt3 | inactive: 0.22
62 | GCCAAUGGUCACGAACCUATT against Senp5 | inactive: -0.217
63 | GGUUCACCUGGAUUCUGCATT against Clasrp | active: -2.1
64 | GCUUAGAUCUUACCCACCCTT against Ptcra | active: 2.52
65 | GGAUCAAGGAAGCUCUCAGTT against Retnlb | inactive: -0.121
66 | GGUUGAUUAGAAUUGAUGCTT against Fermt1 | inactive: -1.02

Row | Sequence | z-score
67 | GGCAAAGCAAGCUAUAUCCTT against Cxcr5 | inactive: 0.55
68 | GCGGGACACCAUCAAUCCATT against Sytl4 | inactive: 0.322
69 | GGAUGUGUGAAUCUACUGATT against Gpm6a | inactive: -0.432
70 | GCUCAUAUACUCUAAAUUGTT against Vmn1r63 | inactive: -0.587
71 | GGGUGAGUAUAUGAUUCCUTT against Ctsd | inactive: -1.5
72 | GCUUGUGGAUUCGAUUUGGTT against Gtf3c5 | inactive: 0.485
73 | GGUAGAGCAGAGCCUCCAUTT against Olfr555 | inactive: 0.933
74 | CCGUGAAUUUUCAUUCACATT against Prim1 | inactive: 0.289
75 | GGAAGAAUCGUUUAUGACATT against Ppp4r2 | inactive: 0.73
76 | GGAUGUUCCAGCCCUUAUUTT against Rtl3 | inactive: 0.351
77 | GGUGCUGUUGAAUUGUGGGTT against Wdr77 | inactive: -0.366
78 | CCCAAUACCCAGGACUCAATT against Zfp51 | inactive: -0.542
79 | GGUUUUAAGUUCUAGGGAATT against Olfr1288 | inactive: -0.599
80 | GGAAGACGGGCAUCAUGAATT against Srf | inactive: 0.251
81 | GGAUGACCACACUAACCUCTT against Fars2 | inactive: 0.915
82 | GCUAUAUUGUUAGCACACATT against Hmgn2 | inactive: 0.326
83 | CGCUAUCUCGUUCAGGAUATT against Timm23 | inactive: 1.95
84 | GCAAGAUGGUAUCAGCAGATT against Sde2 | active: -2.1
85 | GGAGCAGUUGUGUUUAACATT against Psg17 | inactive: 0.596
86 | GGUAUCUGACCUCUUAAAATT against Olr1 | inactive: 0.321
87 | GGCCCAUAUUUUAUUACCGTT against Galns | inactive: -1.84
88 | GGACAUCUGUGUUAAAUUUTT against Npy1r | inactive: -0.47

A different layout for some results above.
Row	Sequence	z-score
2	GGGAGGAACAUCACCUCAGTT against Vmn2r123	inactive: 0.327
6	GGCCUUCUGUGUGGUCUAUTT against Kcnk7	inactive: 0.124
8	GGCUUUCCUAGGGAUGUCUTT against S100a3	inactive: -1.76
9	CCUCUGCAUCUUGGCACCATT against Tmem205	inactive: -0.0753
14	GGAUUUAUGCAUUUCUCCATT against Exosc8	inactive: -1.77
17	GGAGGACUAAUGGUGUUCATT against Pcnx4	inactive: -0.0404
18	GGUGCAUGCACAAGUGUUUTT against Esrra	inactive: 2
19	CGGAGAACCAACCUAAGUUTT against Dok1	inactive: 0.654
20	GAGUUCAUCCCGUAUCACCTT against Cox6a2	inactive: -1.29
24	GGAUAUGACAGCUUUCUUUTT against T2	inactive: -0.814
26	GGAGGUUCAACAUGAAAAUTT against Lingo2	inactive: -0.253
28	CGAUGUAACAAAUGAGAUUTT against Gpbp1	inactive: -0.685
29	GGCAGAAUGCACAGAACCUTT against Cpz	inactive: -1.38
32	GGGUAAUGAGCUUGGUGAATT against Zfp53	inactive: -1.45
36	GGAUAACCGCCAAUAAAAATT against Msantd3	inactive: 0.255
38	GGAUAAAGCAUCAGACAAATT against Hmgn1	inactive: -0.202
39	GGUACAGGAAAAAAGAAGATT against Msl3	inactive: -0.784
42	GGCUCCUUUGGAGAAGUUUTT against Stk26	inactive: 0.856
46	CGCAGAGUUGAUUGUCCUGTT against Neu2	inactive: -1.41
50	GGUAAGUGGAGGUAUUCUUTT against Egln1	active: 2.28
52	GGCUGGUACAAAGUUUUAGTT against Mpv17	active: 2.55
62	GCCAAUGGUCACGAACCUATT against Senp5	inactive: -0.217
63	GGUUCACCUGGAUUCUGCATT against Clasrp	active: -2.1
79	GGUUUUAAGUUCUAGGGAATT against Olfr1288	inactive: -0.599
80	GGAAGACGGGCAUCAUGAATT against Srf	inactive: 0.251
84	GCAAGAUGGUAUCAGCAGATT against Sde2	active: -2.1
86	GGUAUCUGACCUCUUAAAATT against Olr1	inactive: 0.321

Remaining list, next part:

Row | Sequence | z-score
89 | GGACGGCAAAGCGUACUGUTT against Pxn | inactive: -0.763
90 | GGCACUGAGACUUGAUACATT against Spink10 | inactive: -0.177
91 | GGCUCUUUUGAUCACCAAUTT against Abcc1 | inactive: -1.55
92 | GGUCCAGAAGAAUUAUGAATT against Pam16 | inactive: -0.553
93 | CCUGCAAGACAUUUCUCAGTT against Gm1968 | inactive: -1.26
94 | GCGGGAGAGCUAUGAAACATT against Mrps21 | inactive: -0.0502
95 | CUGUAAGGCGGAUAAGACCTT against Pantr1 | inactive: -1.42
96 | GAGUCAUUACACCAGACAGTT against Gm5533 | inactive: 0.0787
97 | GGAGAAGUUCUGAACUGCUTT against Ice1 | inactive: -1.36
98 | GGGAGUUCUCUAAAUGCUUTT against Olfr482 | inactive: 1.52
99 | CCUAGGAAUCCUUGAUGAUTT against Bmp8b | inactive: 0.14
100 | CGACACACCAGAACGAAUCTT against Cmtm8 | inactive: -0.424
101 | CGGAGAUUGUCCAAUGCAUTT against Hid1 | inactive: 0.199
102 | GCCACUCAUAUUGAUCCAUTT against Prss34 | active: -2.31
103 | CCAAAAUCAUAGAUGGAGUTT against Postn | inactive: 0.0946
104 | GGAUGGAUUGCUGGUUACATT against Vwa3a | inactive: -0.336
105 | GGAACGAGAAUCGGAGAUGTT against Mapk8ip3 | active: 2.92
106 | GGUACCUAGGAUGCUCUCATT against Ift140 | active: -2.23
107 | GGAAGAAAUUUUUCGUUGATT against Gldc | inactive: -0.71
108 | GGCACUCAACACCUGUAUATT against Olfr640 | inactive: -1.34

— PubChem BioAssay AID1508600 (Functional Genomics Laboratory (NCATS/FGL), 2020)
